From the supplement of paper PMC12889115
The other results are listed elsewhere or left out. These are raw signals, not scaled to a control.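 In the initial screen, polymyxin B was used at a concentration that permeabilizes Salmonella's outer membrane but not its inner membrane. Maximum growth was set by DMSO wells with or without polymyxin B. Since plates varied, data were ranked per plate, and compounds giving the lowest OD600 advanced as hits.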

Test system: Salmonella enterica serovar Typhimurium SL1344
Experiment: bacterial growth OD600 after 18 h with compound and polymyxin B; higher = more bacterial growth (less inhibition)
Settings: 50 µM, Mueller-Hinton broth

In the case of `COCCNC(=O)c1ccc(OC2CCN(Cc3cnn(C(C)C)c3)CC2)c(Cl)c1`, the “bacterial growth OD600” value (polymyxin B 1 µg/mL) is reported as 0.973.

`NC(=O)[C@H](Cc1ccccc1)NC1CCN(c2cccc(NC(=O)CCCc3ccccc3)c2)CC1` was tested, and the “bacterial growth OD600” value (polymyxin B 0.75 µg/mL) was 0.038.

In the case of `OC(COc1cccc(CN2CCN(C3CCCCC3)CC2)c1)CN1CCOCC1` (stereo not given), the “bacterial growth OD600” value (polymyxin B 1 µg/mL) is reported as 0.86.

`COc1ccccc1C1(CC(=O)N(C)CC2Cc3ccccc3O2)CC(=O)N(C2CCCC2)C1=O` (stereo not given) was tested, and the “bacterial growth OD600” value (polymyxin B 0.75 µg/mL) was 0.005.

In the case of `COc1cccc(CC(C2CCN(C(=O)CC3CCCC3)CC2)N(C)C(=O)c2ccn(C)n2)c1` (stereo not given), the “bacterial growth OD600” value (polymyxin B 0.75 µg/mL) is reported as 0.771.

With `O=C(NCC1CCCN(C(=O)CCn2cncn2)C1)c1ccc(-c2ccccc2)cc1` (stereo not given) the “bacterial growth OD600” value (polymyxin B 1 µg/mL) was 0.922.

`COc1ccc(C(=O)N2CCCC(CCC(=O)Nc3ccc(OC)c(Cl)c3)C2)o1` (stereo not given) was tested, and the “bacterial growth OD600” value (polymyxin B 1 µg/mL) was 1.1.

With `COCc1ccc(C(=O)Nc2ccc(-c3nc(CNC(=O)c4cccnc4C)c(C)o3)cc2)o1` the “bacterial growth OD600” value (polymyxin B 0.75 µg/mL) was 0.816.

For `CCN(CC1CCCN(CCc2cccc(OC)c2)C1)C(=O)CCC(=O)OC` (stereo not given), the “bacterial growth OD600” value (polymyxin B 1 µg/mL) was 0.937.

With `COc1ccc(NC(=O)CCC2CCN(C(=O)CC3=CCCCC3)CC2)c(OC)c1` the “bacterial growth OD600” value (polymyxin B 1 µg/mL) was 0.862.

In the case of `CN(Cc1nc(-c2ccccn2)no1)C1CCCCC1`, the “bacterial growth OD600” value (polymyxin B 1 µg/mL) is reported as 0.962.

With `Cn1cc(CN2CCc3c([nH]c4ccccc34)C2c2cc(F)ccc2F)cn1` (stereo not given) the “bacterial growth OD600” value (polymyxin B 1 µg/mL) was 0.427.

With `CCOC(=O)N1CCC(N2CCN(Cc3ccccc3F)C(CCO)C2)CC1` (stereo not given) the “bacterial growth OD600” value (polymyxin B 1 µg/mL) was 0.96.

For `NC(=O)CCN1CCN(Cc2cn(-c3ccccc3)nc2-c2ccc3c(c2)OCO3)CC1`, the “bacterial growth OD600” value (polymyxin B 1 µg/mL) was 0.923.

In the case of `CCn1cc(CN2CCCC(C(=O)Nc3ccc(-c4ccco4)cc3)C2)c(C)n1` (stereo not given), the “bacterial growth OD600” value (polymyxin B 0.75 µg/mL) is reported as 0.642.

In the case of `O=C(c1ccc(N2CCC(NCc3csc(Cc4ccccc4)n3)CC2)cc1)N1CCOCC1`, the “bacterial growth OD600” value (polymyxin B 0.75 µg/mL) is reported as 0.83.

In the case of `COc1cccc(CNC(=O)c2cc(COc3c(C)cccc3C)on2)c1OC`, the “bacterial growth OD600” value (polymyxin B 0.75 µg/mL) is reported as 0.578.

`COc1ccccc1C(=O)C1CCCN(C(=O)c2ccc(F)c(F)c2)C1` (stereo not given) was tested, and the “bacterial growth OD600” value (polymyxin B 1 µg/mL) was 0.861.

With `COCCCN1C(=O)CC(CC(=O)N2CCN(c3ccccc3)C(=O)C2)(c2ccccc2OC)C1=O` (stereo not given) the “bacterial growth OD600” value (polymyxin B 0.75 µg/mL) was 0.875.

In the case of `Cc1ccccc1-n1ncc2c1CC(C)(C)CC2NC(=O)C(C)(C)C` (stereo not given), the “bacterial growth OD600” value (polymyxin B 0.75 µg/mL) is reported as 0.538.

For `Cc1cc(F)ccc1NC(=O)CCC1CCCN(C(=O)c2ccc3c(c2)no[n+]3[O-])C1` (stereo not given), the “bacterial growth OD600” value (polymyxin B 1 µg/mL) was 0.856.

For `C=CCC(=O)NC1CC(C)(C)Cc2c1cnn2-c1ccc(F)cc1` (stereo not given), the “bacterial growth OD600” value (polymyxin B 0.75 µg/mL) was 0.459.

For `O=C(C1CCN(Cc2nc(-c3ccccc3)no2)CC1)N1CCCCC1`, the “bacterial growth OD600” value (polymyxin B 0.75 µg/mL) was 0.831.

For `CS(=O)(=O)c1ncc(CN2CCCC(c3ccccc3)C2)n1Cc1ccccc1F` (stereo not given), the “bacterial growth OD600” value (polymyxin B 1 µg/mL) was 0.5.

With `Cc1ccccc1N1C(=O)CN(C(=O)c2cc(C3CC3)nc3ccccc23)CC1C` (stereo not given) the “bacterial growth OD600” value (polymyxin B 0.75 µg/mL) was 0.856.

With `COc1ccc(CN2CCC(CO)(Cc3ccccc3)CC2)c(Cl)c1OC` the “bacterial growth OD600” value (polymyxin B 1 µg/mL) was 0.761.

With `CCOC(=O)N1CCN(C(=O)c2cc(NC(=O)COC)cc3ncn(Cc4ccc(F)cc4)c23)CC1` the “bacterial growth OD600” value (polymyxin B 0.75 µg/mL) was 0.786.

In the case of `COc1ccc(CNC(=O)CCC2CCCN(C(=O)c3cc(C(C)C)no3)C2)c(OC)c1` (stereo not given), the “bacterial growth OD600” value (polymyxin B 1 µg/mL) is reported as 0.839.

For `C=CCn1cc(CN2CCOC(CCN(C)C)C2)c(C)n1` (stereo not given), the “bacterial growth OD600” value (polymyxin B 0.75 µg/mL) was 0.846.

`Cc1ccc(CN2CCNC(=O)C2CC(=O)N2CCN(c3ccccc3)CC2)cc1` (stereo not given) was tested, and the “bacterial growth OD600” value (polymyxin B 1 µg/mL) was 1.01.
